Results taken from article PMC10497945 (Frontiers in Pharmacology, 2023).
Some peptides are written in HELM: one residue between dots, names in brackets for other building blocks, links after the first $.

Assay: general procedure: Fmoc solid-phase peptide synthesis; 2-chlorotrityl chloride resin (Cl-Trt-resin) preloaded with amino acid; HOBt/DCC
Details: TFA salt
[1] = whole synthesis, scale of the general procedure 1.1 mmol

Q: With Arg(Pbf)-Gly-Asp(OtBu)-phe-Lys(Cbz)OH as the substance, how does the crude mass (whole synthesis) read?
A: Its crude mass is 650 mg.

Q: And the crude yield [1]?
A: Its crude yield is 55.5%.

Q: With “c [Arg (pbf)-Gly-Asp(OtBu)-phe-Lys (Cbz)]” as the substance, how does the cyclisation yield (cyclisation step) read?
A: The cyclisation yield was 88.3%.

Q: For “PEPTIDE1{R.G.D.[dF].K}$PEPTIDE1,PEPTIDE1,1:R1-5:R2$$$V2.0”, which step yield (late stage modification step) is on record?
A: The step yield was 92%.

Q: With Fmoc Ala-Val-Pro-Ile-Gly-Lys-OH as the substance, how does the crude mass (whole synthesis) read?
A: Its crude mass is 325 mg.

Q: What about the “crude HPLC purity” value (whole synthesis, analytical RP-HPLC and elemental analysis, scale of the general procedure 1.1 mmol) of the same substance?
A: The value was >95%.

Q: And the crude yield [1]?
A: The crude yield was 36.4%.

Q: Which results are given for FmocAla-Val-Pro-Ile-Gly-Lys(Boc)-OH?
A: crude mass (whole synthesis): 325 mg; crude yield [1]: 32.7%
